Experimental data from paper PMC3543382, “Elements of Transcriptional Machinery Are Compatible among Plants and Mammals” (PLoS ONE, 2013).
No constants are given. Whether binding was seen depends on the method and setting. Binding seen in cells or lysates may run through a third protein. Some binding calls cover weakened binding; strength is not graded here. For some of these results: Sequences can lack the tags named with a protein.

Chains of the proteins cited; added tags and fusions are not shown. Residues count along the entry.
UniProt Q04206: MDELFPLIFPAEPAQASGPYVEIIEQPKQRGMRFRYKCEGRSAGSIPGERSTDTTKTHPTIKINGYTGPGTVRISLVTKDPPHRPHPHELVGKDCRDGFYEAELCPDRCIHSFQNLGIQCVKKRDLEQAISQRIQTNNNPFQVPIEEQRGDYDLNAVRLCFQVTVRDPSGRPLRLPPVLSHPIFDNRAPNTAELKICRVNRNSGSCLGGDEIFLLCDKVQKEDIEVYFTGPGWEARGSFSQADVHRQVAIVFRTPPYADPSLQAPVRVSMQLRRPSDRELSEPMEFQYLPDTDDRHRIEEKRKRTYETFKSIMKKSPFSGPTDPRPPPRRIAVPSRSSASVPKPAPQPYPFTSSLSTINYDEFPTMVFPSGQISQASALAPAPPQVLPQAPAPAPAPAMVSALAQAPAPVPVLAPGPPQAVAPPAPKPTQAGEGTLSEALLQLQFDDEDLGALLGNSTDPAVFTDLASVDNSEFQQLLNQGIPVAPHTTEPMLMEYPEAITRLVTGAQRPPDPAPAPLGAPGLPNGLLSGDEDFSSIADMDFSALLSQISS
UniProt P25963: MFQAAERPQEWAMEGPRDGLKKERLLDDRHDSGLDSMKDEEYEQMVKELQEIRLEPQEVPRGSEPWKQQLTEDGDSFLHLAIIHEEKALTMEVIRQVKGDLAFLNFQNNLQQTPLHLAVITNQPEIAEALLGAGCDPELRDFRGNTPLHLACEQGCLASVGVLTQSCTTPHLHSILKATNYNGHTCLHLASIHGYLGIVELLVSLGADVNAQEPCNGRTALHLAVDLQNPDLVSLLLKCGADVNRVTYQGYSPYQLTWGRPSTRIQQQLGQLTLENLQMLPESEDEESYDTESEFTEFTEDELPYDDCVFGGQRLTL
UniProt P19838, residues 1-433: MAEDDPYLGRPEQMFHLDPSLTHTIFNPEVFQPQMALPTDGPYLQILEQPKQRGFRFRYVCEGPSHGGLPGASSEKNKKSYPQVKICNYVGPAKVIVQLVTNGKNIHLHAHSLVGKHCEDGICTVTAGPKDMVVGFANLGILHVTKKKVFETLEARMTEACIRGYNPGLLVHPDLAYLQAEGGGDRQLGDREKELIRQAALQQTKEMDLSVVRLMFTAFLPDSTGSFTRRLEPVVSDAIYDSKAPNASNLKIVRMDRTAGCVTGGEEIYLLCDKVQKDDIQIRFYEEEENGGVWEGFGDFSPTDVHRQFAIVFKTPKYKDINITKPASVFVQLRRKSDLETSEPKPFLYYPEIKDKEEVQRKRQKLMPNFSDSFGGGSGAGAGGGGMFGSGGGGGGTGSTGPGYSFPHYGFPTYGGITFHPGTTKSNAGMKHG

Columns and labels:
Abi5-YFP = target: T1, Abi5-YFP (UniProt Q9SJN0); assay: FRET or BRET; sensitised-emission FRET between ECFP (donor) and EYFP/YFP (acceptor) fusion proteins co-expressed in living Arabidopsis thaliana mesophyll protoplasts; confocal laser scanning microscopy, excitation 458 nm and 514 nm
T1 sequence: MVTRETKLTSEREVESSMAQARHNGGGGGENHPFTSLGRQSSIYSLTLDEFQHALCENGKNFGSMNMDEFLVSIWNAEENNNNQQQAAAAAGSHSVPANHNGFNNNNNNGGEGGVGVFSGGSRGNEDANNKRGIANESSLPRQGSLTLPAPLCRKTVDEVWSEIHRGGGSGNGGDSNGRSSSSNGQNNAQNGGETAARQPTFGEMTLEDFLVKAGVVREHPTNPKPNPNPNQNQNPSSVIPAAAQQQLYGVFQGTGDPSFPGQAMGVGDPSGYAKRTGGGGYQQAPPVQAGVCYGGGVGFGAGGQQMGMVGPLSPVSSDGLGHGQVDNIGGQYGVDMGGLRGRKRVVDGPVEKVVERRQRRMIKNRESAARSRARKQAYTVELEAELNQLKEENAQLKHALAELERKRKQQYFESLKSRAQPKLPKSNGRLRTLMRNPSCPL

[1] = target: RelA-EYFPNt and RelA-EYFPCt (human) (UniProt Q04206); assay: split reporter; EYFP-based BiFC (EYFP fragments 1-155 and 156-238) in living Arabidopsis protoplasts; EYFP emission normalised to co-expressed ECFP; controls RelA-EYFPNt/EYFPCt and EYFPNt/RelA-EYFPCt

binding [1]	Substance	binding (Abi5-YFP)
	IκB-ECFP (from UniProt P25963 1-317)	no binding
	RelA-ECFP (from UniProt Q04206 1-551)	no binding
binds weakly	RelA-EYFPNt and RelA-EYFPCt (from UniProt Q04206 1-551)	
	p50-ECFP (from UniProt P19838 1-433)	no binding
